The results in this text go back to PubChem BioAssay AID330 (DTP/NCI, 2004).

The test system of this test is P388 leukemia ip, CD2F1 mice, survival T/C. The test is described as follows: NCI In Vivo Anticancer Drug Screen. Data for tumor model P388 Leukemia (intraperitoneal) in CD2F1 (CDF1) mice. To be noted: T/C endpoint: median survival time, higher T/C = longer survival.
Setting [1] is: dose: 12.5 mg/kg/injection, schedule: Q01DX005 (ip), vehicle: saline with Tween-80.
Where [2] appears, read: dose: 50.0 mg/kg/injection, schedule: Q01DX005 (ip), vehicle: saline with Tween-80.
The mark [3] stands for this setting: dose: 100.0 mg/kg/injection, schedule: Q01DX005 (ip), vehicle: saline with Tween-80.
Where [4] appears, read: dose: 200.0 mg/kg/injection, schedule: Q01DX009 (ip), vehicle: saline.
[5] abbreviates: dose: 120.0 mg/kg/injection, schedule: Q01DX005 (ip), vehicle: Klucel (hydroxypropylcellulose) (HPC).
Setting [6] is: dose: 240.0 mg/kg/injection, schedule: Q01DX005 (ip), vehicle: Klucel (hydroxypropylcellulose) (HPC).

The list does not hold the whole screen: it is rich in T/C values a quarter to a half above the control, in often repeated tests (any T/C) and in doses without a T/C. Other doses and runs of a compound stand elsewhere. T/C: endpoint of the treated group in % of that of the vehicle group. Some doses have a count of surviving animals in place of a T/C: the source files T/C as zero there, which appears to mark a toxic dose or a test without result, not a measured value. Some doses without a T/C left all or most animals alive at the check, yet need not have been tolerated: the source hardly ever lists a survival T/C far under the control, and the zero likely stands for such cases as well. Survivors were counted at the toxicity check, usually on the fifth day, unless a day is given; later deaths do not show. Schedule codes are those of the source, read here as Q, the interval in days (D) or hours (H), X, the number of doses. Some doses were run more than once; their values stand side by side, smallest first. Where survival is the endpoint, the PubChem record calls one and a half times the control and up active, and a quarter to a half above the control has no call in these data; cut-offs in other NCI protocols can differ. Some T/C values are followed by the survivors on the day toxicity was checked, most often the fifth; without a count, all were alive then.

On to `CO[C@@]12[C@@H]3N[C@@H]3CN1C1=C(C(=O)C(N3CCCC3)=C(C)C1=O)[C@@H]2COC(N)=O`, for which the T/C reads like this: (dose: 0.78 mg/kg/injection, schedule: Q01DX005 (ip), vehicle: saline with Tween-80) 141 % of control; (dose: 1.56 mg/kg/injection, schedule: Q01DX005 (ip), vehicle: saline with Tween-80) 138, 141, 161, 196, 200 % of control; (dose: 2.25 mg/kg/injection, schedule: Q01DX005 (ip), vehicle: saline with Tween-80) 149 % of control; (dose: 3.12 mg/kg/injection, schedule: Q01DX005 (ip), vehicle: saline with Tween-80) 137, 191, 209, 232 % of control; (dose: 3.13 mg/kg/injection, schedule: Q01DX005 (ip), vehicle: saline with Tween-80) 144 % of control; (dose: 6.25 mg/kg/injection, schedule: Q01DX005 (ip), vehicle: saline with Tween-80, evaluated on day 23) 214 % of control. Besides, the T/C reads like this: (dose: 6.25 mg/kg/injection, schedule: Q01DX005 (ip), vehicle: saline with Tween-80, evaluated on day 30) 186, 194, 205, 224, 241, 272 % of control; under setting [1], 191 and 217 % of control. Besides, the survivor count was 10 of 10 and 6 of 6 under setting [1]; 3 of 6 (dose: 25.0 mg/kg/injection, schedule: Q01DX005 (ip), vehicle: saline with Tween-80); 0 of 6 under setting [2]; 0 of 6 under setting [3].
`CCC[CH2][Sn]([CH2]CCC)([O]C(=O)/C=C/c1ccccc1)[O]C(=O)/C=C/c1ccccc1`: the survivor count is 6 of 6 (dose: 3.12 mg/kg/injection, schedule: Q04DX003 (ip), vehicle: DMSO); 4 of 6 (dose: 6.25 mg/kg/injection, schedule: Q04DX003 (ip), vehicle: DMSO); 2 of 6 (dose: 11.0 mg/kg/injection, schedule: Q04DX003 (ip), vehicle: DMSO); 0 of 6 and 3 of 6 (dose: 12.5 mg/kg/injection, schedule: Q04DX003 (ip), vehicle: DMSO); 0 of 6 (dose: 16.5 mg/kg/injection, schedule: Q04DX003 (ip), vehicle: DMSO); 0 of 6 (dose: 25.0 mg/kg/injection, schedule: Q04DX003 (ip), vehicle: DMSO). Further, the survivor count by setting is: (dose: 37.5 mg/kg/injection, schedule: Q04DX003 (ip), vehicle: DMSO) 0 of 6; (dose: 50.0 mg/kg/injection, schedule: Q04DX003 (ip), vehicle: saline with Tween-80) 2 of 6; (dose: 100.0 mg/kg/injection, schedule: Q04DX003 (ip), vehicle: saline with Tween-80) 0 of 6. The T/C (dose: 25.0 mg/kg/injection, schedule: Q04DX003 (ip), vehicle: saline with Tween-80) was 126 % of control.
As for `O=C1c2ccccc2C(=O)C1(Br)c1ccccc1`, the survivor count (dose: 400.0 mg/kg/injection, schedule: Q04DX002 (ip), vehicle: saline with Tween-80) is 0 of 6.
For the molecule `CCOc1c(N=Nc2cccc([N+](=O)[O-])c2)c(C)nn1C(N)=S`, the survivor count was 0 of 6 and 3 of 6 (dose: 60.0 mg/kg/injection, schedule: Q01DX005 (ip), vehicle: Klucel + Tween-80); 0 of 6 (dose: 120.0 mg/kg/injection, schedule: Q01DX005 (ip), vehicle: Klucel + Tween-80); 0 of 6 (dose: 240.0 mg/kg/injection, schedule: Q01DX005 (ip), vehicle: Klucel + Tween-80).
With `COc1ccc2c(c1)CCCN2`, the T/C was 132 % of control (dose: 100.0 mg/kg/injection, schedule: Q01DX009 (ip), vehicle: saline with Tween-80); 125 and 128 % of control (dose: 200.0 mg/kg/injection, schedule: Q01DX009 (ip), vehicle: saline with Tween-80).
Take `CC1=CC(C)(C)N=C(N)N1`: the survivor count was 0 of 6 (dose: 100.0 mg/kg/injection, schedule: Q01DX005 (ip), vehicle: saline) and 0 of 6 (dose: 200.0 mg/kg/injection, schedule: Q01DX005 (ip), vehicle: saline).
Regarding `Cc1ccc(C2=C(C#N)C(c3ccccc3)C(C#N)=C(N)O2)cc1` (stereo not given), the survivor count (dose: 200.0 mg/kg/injection, schedule: Q01DX005 (ip), vehicle: Klucel (hydroxypropylcellulose) (HPC)) was 5 of 5.
For `C=CCC1C/C=C\COC(=O)CC(C)(C)CC1=O` (stereo not given), the survivor count (dose: 200.0 mg/kg/injection, schedule: Q04DX003 (ip), vehicle: saline) is 6 of 6.
With `CCCCCCC(Cn1ccnc1)c1ccc(Br)cc1` (stereo not given), the survivor count (dose: 400.0 mg/kg/injection, schedule: Q04DX003 (ip), vehicle: saline with Tween-80) is 0 of 6.
For the molecule `O=S(=O)(c1cnccc1N1CCN(CCO)CC1)N1CCCCC1`, the survivor count under setting [4] was 3 of 6.
In the case of `C/C(=N/NC(=O)CCl)c1ccccc1`, the survivor count is recorded as 4 of 6 (dose: 150.0 mg/kg/injection, schedule: Q01DX009 (ip), vehicle: saline with Tween-80) and 1 of 6 (dose: 300.0 mg/kg/injection, schedule: Q01DX009 (ip), vehicle: saline with Tween-80).
For `O=C(NCCCl)OCC1=C(COC(=O)NCCCl)C(=O)c2ccccc2C1=O`, the T/C under setting [2] is 125 % of control [5 of 6 alive]. The survivor count runs as follows: under setting [2], 3 of 6; under setting [3], 1 of 6 and 2 of 6; (dose: 200.0 mg/kg/injection, schedule: Q01DX005 (ip), vehicle: saline with Tween-80) 0 of 6.
Consider `C=CN=NNc1ccc(OC)cc1`, for which, under “dose: 400.0 mg/kg/injection, schedule: Q04DX003 (ip), vehicle: saline + Tween-80 + alcohol”, the survivor count is reported as 3 of 6.
Consider `N/C(Cc1noc2ccc(F)cc12)=N\O`, for which the survivor count under setting [4] is 0 of 6.
Regarding `CCN(CC)CCCNc1ccc([N+](=O)[O-])c2no[n+]([O-])c12`, the survivor count under setting [4] is on record as 0 of 6.
Regarding `O=C(CCl)N1c2ccccc2Sc2c1ccc1ccccc21`, where the note is “dose: 50.0 mg/kg/injection, schedule: Q01DX009 (ip), vehicle: suspension in saline”, the T/C was 125 % of control [5 of 6 alive].
For the molecule `CCCCC/C=C/C/C=C\CCCCCCCC(=O)NC1CC(O)C(O)NC(=O)C2C(O)C(C)CN2C(=O)C(C(C)O)NC(=O)C(C(O)C(O)c2ccc(O)cc2)NC(=O)C2CC(O)CN2C(=O)C(C(C)O)NC1=O` (stereo not given), the survivor count is, setting by setting: (dose: 0.13 mg/kg/injection, schedule: Q01DX009 (ip), vehicle: lactate) 6 of 6; (dose: 1.0 mg/kg/injection, schedule: Q01DX009 (ip), vehicle: lactate) 2 of 6; (dose: 8.5 mg/kg/injection, schedule: Q01DX009 (ip), vehicle: lactate) 4 of 6; (dose: 17.0 mg/kg/injection, schedule: Q01DX009 (ip), vehicle: lactate) 0 of 6; (dose: 34.0 mg/kg/injection, schedule: Q01DX009 (ip), vehicle: lactate) 0 of 6; (dose: 68.0 mg/kg/injection, schedule: Q01DX009 (ip), vehicle: lactate) 0 of 6.
`COc1ccc2c(c1)[C@@]13CCCC[C@H]1[C@@H](C2)[N+](C)=CC3=NO`: the survivor count is reported as 6 of 6 under setting [5] and 6 of 6 under setting [6].
With `Cc1ccc(SNc2ccccc2)cc1`, where the note is “dose: 200.0 mg/kg/injection, schedule: Q04DX003 (ip), vehicle: saline with Tween-80”, the survivor count is on record as 5 of 6.
Take `Cn1c(=O)c2nsnc2n(C)c1=O`: the T/C (dose: 200.0 mg/kg/injection, schedule: Q04DX002 (ip), vehicle: Klucel (hydroxypropylcellulose) (HPC)) was 125 % of control. Also, the survivor count (dose: 400.0 mg/kg/injection, schedule: Q04DX002 (ip), vehicle: Klucel (hydroxypropylcellulose) (HPC)) is on record as 0 of 6.
On to `O=[N+]([O-])CCCN=NN1CCCCC1`, for which the survivor count (dose: 100.0 mg/kg/injection, schedule: Q04DX002 (ip), vehicle: saline) is reported as 6 of 6; the survivor count (dose: 200.0 mg/kg/injection, schedule: Q04DX002 (ip), vehicle: saline) is 6 of 6; the survivor count (dose: 400.0 mg/kg/injection, schedule: Q04DX002 (ip), vehicle: saline) is on record as 6 of 6.
Turning to `Clc1cc2c(c(CSC3=NCN(CC4CC4)CN3)c1)OCOC2`, the survivor count by setting is: under setting [5], 0 of 6; under setting [6], 0 of 6.
